Square brackets hold non-standard residues; d marks the D form. Peptide text beside a SMILES is read from it. Tyr(3-I) = N[C@@H](Cc1ccc(O)c(I)c1)C(=O)O
System: GLP‐2 receptor
Test: autoradiography in mice
Format: in vivo
Conditions: WT mice, 2–3 pmol into inferior caval vein

With CC[C@H](C)[C@H](NC(=O)[C@H](Cc1ccccc1)NC(=O)[C@H](CC(=O)O)NC(=O)[C@H](CCCNC(=N)N)NC(=O)[C@H](C)NC(=O)[C@H](C)NC(=O)[C@H](CC(C)C)NC(=O)[C@H](CC(N)=O)NC(=O)[C@H](CC(=O)O)NC(=O)[C@H](CC(C)C)NC(=O)[C@@H](NC(=O)[C@@H](NC(=O)[C@H](CC(N)=O)NC(=O)[C@H](Cc1ccc(O)c(I)c1)NC(=O)[C@H](CCC(=O)O)NC(=O)[C@H](CC(=O)O)NC(=O)[C@H](CO)NC(=O)[C@H](Cc1ccccc1)NC(=O)[C@H](CO)NC(=O)CNC(=O)[C@H](CC(=O)O)NC(=O)[C@H](C)NC(=O)[C@@H](N)Cc1c[nH]cn1)[C@@H](C)O)[C@@H](C)CC)C(=O)N[C@@H](CC(N)=O)C(=O)N[C@@H](Cc1c[nH]c2ccccc12)C(=O)N[C@@H](CC(C)C)C(=O)N[C@H](C(=O)N[C@@H](CCC(N)=O)C(=O)N[C@H](C(=O)N[C@@H](CCCCN)C(=O)N[C@H](C(=O)N[C@H](C(=O)N[C@@H](CC(=O)O)C(=O)O)[C@@H](C)O)[C@@H](C)CC)[C@@H](C)O)[C@@H](C)CC [[^125I]‐hGLP‐2(1–33,M10Y)] (H-HADGSFSDE[Tyr(3-I)]NTILDNLAARDFINWLIQTKITD-OH; N-terminus and C-terminus assumed) the “labelling of small intestine” value (fixation after 10 min) was “strong labelling in the SEMFs of the GI tract” and the labelling of pancreas (abrogated by unlabelled peptide) was “in pancreatic islet cells”.

From article PMC9303331, “Novel agonist and antagonist radioligands for the GLP‐2 receptor. Useful tools for studies of basic GLP‐2 receptor pharmacology” (British Journal of Pharmacology, 2022)
